# In PubChem BioAssay AID493014 (National Center for Advancing Translational Sciences (NCATS), 2011):
# The other results are listed elsewhere or left out. Shown are side measurements of this screen, not its main read-out; they come without a call. Compounds called inactive in the main read-out are mostly missing here. Potencies come from curve fits of mixed quality, noted in brackets.
# Experiment: qHTS Assay to Find Inhibitors of Chronic Active B-Cell Receptor Signaling
# Conditions: ABC-DLBCL IkBa-CBG/CBR reporter, luminescence ratio (green luciferase fused to IkBa over red control in TMD8 lymphoma cells), 4 h
# Summary of the method: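 Concentration-response series (up to 46 uM) were applied to TMD8 dual-reporter cells for 4 h at 37C with doxycycline. Green/red ratio, after filter-overlap correction, defined %Activity; red signal alone was normalised to basal cells and zero luminescence.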
# [1] = measured here: CBR red luminescence, cell number
# [2] = measured here: IkBa-CBG green luminescence
Structure (SMILES),AC50 [1],AC50 [2]
COc1ccccc1C(=O)Nc1ccc2c(c1)OCCO2,"35.5 µM [falling, single point]",–
COc1ccc2[nH]c(C)c(C(=O)CN3CCN(C(=O)c4ccco4)CC3)c2c1,"15.8 µM [rising, single point]",–
O=c1[nH]c2cc3c(cc2cc1CN(CCO)S(=O)(=O)c1ccccc1)OCCO3,"25.1 µM [rising, single point]",–
Cc1noc(C)c1NC(=O)N(C)C[C@H]1Oc2ccc(NC(=O)Nc3ccc4c(c3)OCO4)cc2C(=O)N([C@H](C)CO)C[C@@H]1C,"0.82 µM [rising, full curve, poor fit]",–
O=C(Cc1ccccc1)Nc1nnc(SCC(=O)NC2CCCC2)s1,"20 µM [rising, partial curve, poor fit]",–
Cc1nc(SCC(=O)NCc2ccco2)c2c(C)c(C)sc2n1,"0.58 µM [falling, partial curve, poor fit]",–
Cc1cc(C2=NNC(=NCc3ccccc3)SC2)c(C)n1-c1c(C)n(C)n(-c2ccccc2)c1=O,"23.1 µM [rising, single point]",–
CC(C)(C)c1ccc(C(=O)Nc2sc3c(c2C(=O)O)CCC3)cc1,"0.282 µM [rising, full curve, poor fit]",–
O=C(Nc1nnc(-c2ccccc2F)s1)c1cccnc1,"1.26 µM [falling, full curve]",–
COc1ccc(NC(=S)NCc2cccs2)cc1,"20 µM [falling, single point]",–
COc1ccc(-c2csc(N(CCc3ccccc3)C(=O)COc3ccccc3)n2)cc1,"7.08 µM [rising, full curve]",–
O=C(c1cc(COc2c(F)cccc2F)on1)N1CCc2ccccc2C1,"0.355 µM [rising, full curve, poor fit]",–
COc1ccc(CC(=O)N2CCN=C2SCc2cccc([N+](=O)[O-])c2)cc1,"11.2 µM [falling, partial curve]",–
FC(F)Oc1ccccc1NC(=S)NCc1ccco1,"1.3 µM [rising, partial curve, poor fit]",–
Cc1nc2scc(-c3ccco3)c2c(=O)n1/N=C/N(C)C,"23.1 µM [falling, partial curve, poor fit]",–
O=C(Nc1ccccc1C(=O)NC1CCCC1)NC1CCCC1,"16.4 µM [rising, single point]",–
CC(C)C(=O)NNC(=O)CSc1ncnc2c1cnn2-c1ccccc1Cl,"4.47 µM [falling, partial curve]",–
Cc1ccc(C(=O)NC(=S)Nc2ccc3c(c2)OCCO3)c(C)c1,"35.5 µM [falling, single point]",–
CCc1cc(C(=O)NNC(=S)NC2CCCCC2)cs1,"0.398 µM [falling, full curve, poor fit]",–
COc1ccccc1N(CC(=O)NC1CCCCC1)C(=O)CCC(=O)Nc1nccs1,"1.58 µM [falling, full curve, poor fit]",–
CCOc1ccc2nc(NC(=O)c3ccc(OC)c(S(=O)(=O)N4CCOCC4)c3)sc2c1,"29.1 µM [falling, single point]","0.517 µM [falling, full curve, poor fit]"
O=C(CCCN1C(=O)/C(=C/c2cccs2)SC1=S)Nc1ccc(O)c(C(=O)O)c1,"10 µM [falling, partial curve, poor fit]",–

# Single entries from the list.
# In AC50 [1], `O=C(c1cc(COc2c(F)cccc2F)on1)N1CCc2ccccc2C1` reads 0.355 µM [rising, full curve, poor fit]
# In AC50 [1], `COc1ccc2[nH]c(C)c(C(=O)CN3CCN(C(=O)c4ccco4)CC3)c2c1` reads 15.8 µM [rising, single point]

# Going on with the list.

Structure (SMILES),AC50 [1],AC50 [2]
N#Cc1ccccc1NC(=O)C(=O)NCCc1csc(-c2ccc(F)cc2)n1,"23.1 µM [rising, single point]",–
CCC1=Nc2cc(C(=O)NCc3ccco3)ccc2Sc2ccc(Cl)cc21,"6.51 µM [rising, full curve]","5.17 µM [falling, full curve]"
O=C(O)c1cc(Sc2ccc(Br)cc2)nc2ccccc12,"22.4 µM [falling, single point]",–
COc1cc(CC(=O)Nc2ccc(Cl)c(C(F)(F)F)c2)cc(OC)c1OC,"29.1 µM [falling, single point]",–
COc1ccc(CC(=O)Nc2nc(-c3ccc(OC)c(OC)c3)cs2)cc1OC,"22.4 µM [falling, single point]",–
COc1ccc(OC)c(NC(=O)CN(C)S(=O)(=O)c2ccc3nc(C)sc3c2)c1,"2.06 µM [rising, partial curve]",–
CCOC(=O)N1CCC(N2C(=O)c3ccccc3C2Nc2cc(C(=O)OC)cc(C(=O)OC)c2)CC1 (configuration not stated),"29.1 µM [falling, single point]",–
Cc1ccccc1C(=O)Nc1ccccc1C(=O)NCc1ccccc1,"3.55 µM [falling, partial curve, poor fit]",–
CCOC(=O)c1c(C)oc2c1c(CN1CCN(CCO)CC1)c(O)c1ccccc12,"35.5 µM [falling, single point]",–
CC1CC(C)CN(C(=O)c2ccncc2)C1 (configuration not stated),"6.51 µM [rising, single point]",–
CCOC(=O)c1cn2nc(N3CCCCC3)ccc2n1,"10 µM [falling, partial curve, poor fit]",–
O=C(C#Cc1cccc([N+](=O)[O-])c1)c1ccccc1,"4.11 µM [falling, partial curve, poor fit]",–
O=c1[nH]c2cc3c(cc2cc1CN(Cc1nnnn1CC1CCCO1)C1CCCCC1)OCO3 (configuration not stated),"20.6 µM [rising, single point]",–
COc1ccc(C(=O)NCc2n[nH]c(=S)n2-c2ccccc2)cc1OC,"18.4 µM [rising, single point]",–
Cc1cccc(CC(=O)Nc2cc(C)c3c(=O)oc4ccccc4c3n2)c1,"0.92 µM [falling, full curve, poor fit]",–
CCN1CCC(NC(=O)Nc2ccc(F)cc2)CC1,"5.62 µM [rising, single point]",–
COc1ccc(C2CCCN2C(=S)Nc2ccc(C)cc2Cl)cc1OC (configuration not stated),"35.5 µM [rising, partial curve, poor fit]",–
CN(C)c1ccc(/C=C/C(=O)c2ccc(C(C)(C)C)cc2)cc1[N+](=O)[O-],–,"18.4 µM [falling, partial curve, poor fit]"
C=CCn1c(SCC(=O)Nc2ccc3c(c2)CCC3)nc2ccccc2c1=O,"2.59 µM [falling, partial curve, poor fit]",–
Cc1ccc(CN2CC(C(=O)OCc3ccccc3Cl)CC2=O)cc1 (configuration not stated),"32.6 µM [rising, partial curve, poor fit]",–
CCn1c(C(=O)O)c(CC(=O)Nc2ccc(Br)cc2C)c2ccccc21,"0.398 µM [rising, full curve, poor fit]",–
Cc1ccc(NC(=O)c2cccs2)cc1NC(=O)c1cccnc1,"7.08 µM [falling, partial curve, poor fit]",–

Structure (SMILES),AC50 [1],AC50 [2]
Cc1nn(-c2ccccc2)c2sc(C(=O)N3CCc4ccccc4C3)cc12,"2.24 µM [falling, partial curve, poor fit]",–
C/C(CC(=O)Nc1ccc2c(c1)OCCO2)=N\NC(=O)c1ccccn1,"8.91 µM [falling, partial curve]",–
O=C(Nc1cccc2c1[nH]c1ccccc12)C(F)(F)F,"32.6 µM [rising, partial curve, poor fit]",–
CCOC(=O)c1ccc2[nH]c3c(c2c1)CCCC3,"0.562 µM [rising, full curve, poor fit]",–
C=CCNC(=S)N1CCN(c2ccccc2Cl)CC1,"0.1 µM [rising, full curve, poor fit]",–
O=C(N/N=C/c1ccsc1)c1ccc2ccccc2n1,"14.1 µM [falling, single point]",–
COc1ccc(C(=O)Nc2cc(OC)cc3cccnc23)cc1,"5.62 µM [rising, partial curve, poor fit]",–
Cc1ccc(CSc2nc3c(c(SCC(=O)O)n2)CCCC3)cc1,"12.6 µM [falling, partial curve]",–
COc1ccc(-n2c(Cc3cccn3C)nnc2SCC(=O)Nc2ccccc2)cc1,"6.51 µM [falling, single point]",–
COc1cc(O)oc1C=Nc1ccc(C(=O)O)cc1,"12.6 µM [falling, partial curve, poor fit]",–
CCOC(=O)C1CCCN(Cc2nc(N)nc(Nc3ccc(C)cc3)n2)C1 (configuration not stated),"13 µM [falling, single point]",–
COc1ccccc1N1CCN(CCN2C(=O)C3CCCCN3C2=O)CC1 (configuration not stated),"14.1 µM [rising, single point]",–
CCn1c(SCC(=O)Nc2nnc(C)s2)nnc1C(C)NC(=O)c1ccccc1 (configuration not stated),"4.47 µM [rising, single point]",–
CCN(CC)CCSc1nnc2c3ccccc3n(Cc3ccccc3)c2n1,"7.94 µM [falling, partial curve, poor fit]",–
N/C(=N\OC(=O)Cc1ccc([N+](=O)[O-])cc1)c1ccccn1,"7.94 µM [falling, partial curve]",–
CC(Sc1nc2ccccc2o1)C(=O)O (configuration not stated),"5.62 µM [falling, full curve]",–
COc1ccccc1N1CCN(C(=O)c2ccc(-c3ccc(Cl)cc3)o2)CC1,"18.4 µM [rising, single point]","18.4 µM [falling, single point]"
COc1ccc(O)c(/C=N/Nc2nc(Nc3ccccc3)nc(-n3nc(C)cc3C)n2)c1,"1.78 µM [falling, partial curve]",–
NC(=O)c1cc2cc(Br)ccc2oc1=NCc1ccccc1,"0.517 µM [falling, full curve, poor fit]",–
CC1CCc2cc(F)ccc2N1C(=O)CCl (configuration not stated),"1 µM [falling, single point]",–
